In PubChem BioAssay AID1259415 (National Center for Advancing Translational Sciences (NCATS), 2018):
Out of some 410,000 compounds screened, about 18,000 (4.4%) were called active. The shares of active, inactive and inconclusive entries below differ from those in the screen. No stated cut-off is given here; in the data, active means activity change below about -60%; inconclusive means no clear call, values can overlap the other calls; inactive means above about -39%.

Test: qHTS Assay for inhibitors of the human cytomegalovirus (HCMV)
Conditions: HFF cells, HCMV-luciferase reporter, 72 h; at 57.5 µM; active compounds read low
Procedure, shortened: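 HFF cells seeded 16 h at 37C, treated with compounds, infected with luciferase-reporter HCMV at MOI 1 PFU/cell; luciferase read at 72 h post infection, normalized to buffer-only and Salinomycin controls.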
On the % scale 0 is the no-effect control and ±100 the full control effect.

| SMILES | activity change, negative = inhibition |
| --- | --- |
| CCOCCCNC(=O)CN1C(=O)/C(=C/c2ccccc2)Sc2ccccc21 | inconclusive: -40.5% |
| Cc1ccc2[nH]c3ccccc3c(=O)c2c1 | inactive: -23.3% |
| O=C(Nc1csc([N+](=O)[O-])c1)Nc1c(Cl)cccc1Cl | active: -76.4% |
| O=C(Cc1ccc(Br)cc1)NCCN1CCOCC1 | inconclusive: -54% |
| CN(C)c1ccc(CC(=O)c2nc3ccccc3s2)cc1 | inconclusive: -48% |
| C=CCSc1nnc(-c2sc(-c3ccccc3)nc2C)n1C | inactive: 23.4% |
| CC1C(C#N)=C(SCC(N)=O)NC2=C1C(=O)CC(C)(C)C2 (stereo not drawn) | inconclusive: -53.7% |
| CCOC(=O)C1=C(CN2CCN(c3cccc(OC)c3)CC2)NC(=O)NC1c1ccc(OC)cc1 (stereo not drawn) | inactive: 5.89% |
| CCCCn1c(N)c(N(CC(C)C)C(=O)c2cc(-c3ccc(F)cc3)nc3ccccc23)c(=O)[nH]c1=O | inactive: -24.6% |
| CCN(CC(=O)Nc1c(F)cccc1F)C(=O)Cn1c(=O)cnc2ccccc21 | inconclusive: -47.4% |
| CC(C)(C)C(=O)NC1CC2CCCC(C1)N2C(=O)Nc1ccccc1 (stereo not drawn) | inconclusive: -43.9% |
| CCc1cc2cc3c(cc2nc1SCC(=O)OC(C)C)OCO3 | inconclusive: -42.6% |
| COc1ccc(NC(=O)c2oc3c(c2C)-c2nn(Cc4ccccc4Cl)cc2CC3)cc1OC | active: -63.7% |
| C=CCOc1c(Cl)cc(C(=S)N2CCCC2)cc1OCC | active: -76.1% |
| COc1cc(/C=C/c2ccc3cccc(O)c3n2)cc(Br)c1OC | inconclusive: -53.7% |
| Oc1c(C=Nc2ccc(Cl)cn2)sc2ccccc12 | inconclusive: -45.5% |
| COc1ccc(/C=c2\sc3nc(=O)c(C)nn3c2=O)c(OC)c1 | active: -61.9% |
| CC1OC(Oc2c(-c3cc(O)c(O)c(O)c3)oc3cc(O)cc(O)c3c2=O)C(O)C(O)C1O (stereo not drawn) | inconclusive: -40.8% |
| O=C(Nc1ccc(N2CCCC2)c(Cl)c1)c1ccc([N+](=O)[O-])o1 | active: -89.2% |
| COc1ccc(CCNC(=O)CN2C(=O)NC(Cc3c[nH]c4ccccc34)C2=O)cc1 (stereo not drawn) | inactive: 12.9% |
| O=C(Nc1ccc(F)cc1)C1CCCN(c2ncnc3c2nc2n3CCCCC2)C1 (stereo not drawn) | inconclusive: -48.4% |
| Nc1ccc2c(c1)C(=O)Cc1ccccc1S2 | inconclusive: -40.9% |

| SMILES | activity change, negative = inhibition |
| --- | --- |
| COc1ccc(C(=O)Nc2ccc(C)c(S(=O)(=O)N3CCCCCC3)c2)cc1 | active: -65.4% |
| O=C(Nc1cc2ccc(O)cc2oc1=O)c1ccc(F)cc1 | inactive: 63.5% |
| Cc1ccc(Cl)c(NC(=O)CCl)c1Cl | inconclusive: -41.6% |
| CCOC(=O)c1ccc(NC(=O)C(C)N(c2ccc(OCC)cc2)S(C)(=O)=O)cc1 (stereo not drawn) | inconclusive: -43.3% |
| Cc1c(C(=O)Nc2ccc(F)c(F)c2)oc2ccc(S(=O)(=O)N(C)C3CCCCC3)cc12 | inconclusive: -45.5% |
| CCOc1ccccc1NC(=O)COc1cccc(-n2cnnn2)c1 | inconclusive: -44.2% |
| COc1ccc(/C=C2\SC(=S)N(CCC(=O)NCCCN3CCOCC3)C2=O)cc1 | inactive: -19.3% |
| CC(C)(C)c1ccc(C(=O)O/N=C(\N)c2ccccc2)cc1 | active: -93.9% |
| COc1ccccc1CNC(=O)c1cc(C)nn1-c1ccccc1 | inconclusive: -41.9% |
| Cc1ccc2c(c1)C(=O)C(=O)N2Cc1ccc(OC(C)C)cc1 | active: -76.3% |
| CCCC(=NCCc1c(C)[nH]c2ccccc12)C1=C(O)CC(c2ccccc2)CC1=O (stereo not drawn) | inconclusive: -54% |
| O=C(Cn1ccn(-c2cccc(Cl)c2)c(=O)c1=O)c1ccc(F)cc1 | inconclusive: -43.3% |
| CCCC(=O)Nc1cccc(NC(=O)c2cccc([N+](=O)[O-])c2C)c1 | inactive: -15.7% |
| Cc1ccc(NC(=O)CCS(=O)(=O)c2ccc(Br)cc2)c(C)c1 | inconclusive: 0% |
| Cc1cc(C(=O)NNC(=O)/C=C/c2ccccc2Cl)c(C)o1 | inconclusive: -43.8% |
| CC(=O)Nc1ccc(NC(=O)C(C)Oc2ccc(C)nc2[N+](=O)[O-])cc1 (stereo not drawn) | inactive: 0% |
| Cc1cc(/C=C2\Sc3ccccc3N2C)cc(C)[n+]1CC1CCCO1 (stereo not drawn) | active: -100% |
| CC(C)c1nnc(NC(=O)CCC(=O)N2CCC(Cc3ccccc3)CC2)s1 | inactive: -22% |
| CC(C(=O)Nc1cccc(S(=O)(=O)N2CCOCC2)c1)N1CCN(c2ccc(F)cc2)CC1 (stereo not drawn) | inconclusive: -41.3% |
| CC1=CC(C)[C@H](/C=N/n2c(=O)[nH]c3c([nH]c4ccc(C)cc43)c2=O)C(C)C1 (stereo partly drawn) | inconclusive: -52.9% |
| CC(C)Oc1ccc(CNC(=O)Nc2ccc3c(c2)N(C)C(=O)c2ccccc2S3)cc1 | active: -76.3% |
| COc1ccc(-c2noc(CCC(=O)NCc3cc(Br)ccc3OC)n2)cc1 | inconclusive: -41% |

| SMILES | activity change, negative = inhibition |
| --- | --- |
| COc1cc(/C=C2\CC/C(=C\c3ccc(OCCO)c(OC)c3)C2=O)ccc1OCCO | inconclusive: -44.5% |
| CN(CC(=O)Nc1ccccc1Cl)C1CCS(=O)(=O)C1 (stereo not drawn) | inactive: 11.3% |
| COc1ccc(CCNC(=O)c2ccc(-n3c(C)cc4c3CCCC4)cc2)cc1OC | inconclusive: -44.9% |
| COC(=O)C(c1ccc(Br)cc1)(c1cn(C)c2ccccc12)C(Nc1ccccc1)c1ccccc1 (stereo not drawn) | active: -79.3% |
| C[n+]1ccc(-c2cc[n+](C)cc2)cc1 | inconclusive: -40.7% |
| Cc1ccc(S(=O)(=O)CCC(=O)N2CCN(c3ccc(Cl)cc3)CC2)cc1 | active: -70.1% |
| Cc1cc(=O)n(CCCc2ccccc2)[nH]1 | inconclusive: -49.2% |
| N#CC1=C(N)OC2=C(C(=O)CC(c3ccccc3)C2)C1c1ccc2c(c1)OCO2 (stereo not drawn) | inconclusive: -58.9% |
| COc1ccc(OC)c(/C=C/C(=O)N(C)CC(=O)Nc2cc(C)ccc2C)c1 | inconclusive: -43.6% |
| O=C(CNC(=O)c1ccc(S(=O)(=O)N2CCCC2)cc1)N/N=C/c1ccccc1Cl | active: -62.9% |
| NS(=O)(=O)c1ccc(-c2ccc(C=C3C(=O)c4ccccc4C3=O)o2)cc1 | inconclusive: -50.6% |
| CCN(CC)C(=O)c1ccc(-c2nnc(Nc3cccc(O)c3)c3ccccc23)cc1 | inconclusive: -51.1% |
| O=C(Nc1cccc2cccnc12)c1cccc2ccccc12 | inconclusive: -40.6% |
| C=C(C)CNC(=S)N/N=C1\CCCCc2ccccc21 | active: -61.3% |
| Cc1ccc(/C=N/NC(=O)CCn2nc(C)cc2C)c(C)c1 | inconclusive: -44.1% |
| CC(=O)N1c2ccc(S(=O)(=O)NCC3CCC(C(=O)Nc4ccc(C)cn4)CC3)cc2CC1C (stereo not drawn) | active: -62.5% |
| COc1ccc(-c2cnc(C(O)c3ccc(-c4ccccc4)cc3)[nH]2)cc1 (stereo not drawn) | inactive: 5.92% |
| CCCOC(=O)c1ccc(NC(=O)c2cnccn2)cc1 | inactive: -7.28% |
| COc1cc2[nH]c(=S)n(C3CCN(Cc4ccccc4)CC3)c(=O)c2cc1OC | inconclusive: -40.2% |
| CC(=O)Oc1c(C)c(=O)n(C)c2ccccc12 | inconclusive: -55.2% |
| CC(C)c1ccc(/C=C/c2[nH]c(=O)[nH]c(=O)c2[N+](=O)[O-])cc1 | inactive: 45.7% |
| N#Cc1c(-c2ccccc2)nc(-c2ccncc2)[nH]c1=O | inconclusive: -53.4% |

| SMILES | activity change, negative = inhibition |
| --- | --- |
| CCN(c1ccccc1)S(=O)(=O)c1ccc(NC(=O)c2cc(=O)c3cc(C)ccc3o2)cc1 | inactive: 18.6% |
| COc1cccc(N2CCN(S(=O)(=O)c3ccc4c(c3)NC(=O)C(C)C(=O)N4)CC2)c1 (stereo not drawn) | inconclusive: -41.6% |
| CCOc1ccccc1NC(=O)C1CCCN1S(=O)(=O)c1ccccc1C(F)(F)F (stereo not drawn) | inactive: -12.2% |
| COC(=O)c1cc(OC)c(OC)cc1NC(=O)c1ccccc1C | inconclusive: -45.7% |
| Cn1c(CNC(=O)CNC(=O)c2cccc(F)c2)cc(=O)n(C)c1=O | inactive: 12.1% |
| CN(c1ccc(C(=O)NCc2cccs2)cc1)S(=O)(=O)c1ccccc1 | inconclusive: -44% |
| COc1cc([N+](=O)[O-])cc(/C=N/N(CCC#N)C(C)=O)c1O | inconclusive: -44.2% |
| Cc1ccc(C)n1-c1ccc(C(=O)NC2CCN(Cc3ccccc3)CC2)cc1 | active: -61.7% |
| Cc1cccnc1NC(=O)c1ccc(OCc2c(C)noc2C)cc1 | inactive: 93.3% |
| COc1ccc(CN(CC2CCC(C(=O)O)CC2)C(=S)Nc2ccc(C)c(Cl)c2)cc1 (stereo not drawn) | inconclusive: -49.3% |
| OCCC1CN(Cc2ccccn2)CCN1C1CCCC1 (stereo not drawn) | inconclusive: -47.5% |
| O=C(c1cc2ccccc2o1)N1CCN(C/C=C/c2ccccc2)CC1 | inconclusive: -57.2% |
| Cc1ccc(N(CC(=O)NCc2ccccc2)S(=O)(=O)c2c(C)noc2C)cc1 | inactive: -38.3% |
| CCCCCC1(C(=O)OCC)CC(CSC(=N)N)OC1=O (stereo not drawn) | inconclusive: -57.6% |
| N#CC1=C2SCN(c3ccc(F)cc3)CN2C(=O)CC1c1cccc(F)c1 (stereo not drawn) | active: -92.8% |
| O=C(CSc1ccc(-c2ccccc2)nn1)NC1CCCCC1 | inconclusive: -49.3% |
| CCCS(=O)(=O)NC(=O)C1(C)CCCN(C(=O)c2cc(F)cc(F)c2)C1 (stereo not drawn) | inactive: -9.91% |
| CCOc1ccccc1OCC(=O)Nc1ccc(N2CCCCC2)cc1 | inconclusive: -44.8% |
| Cc1csc(SC(C)C(=O)Nc2ccc3c(c2)OCCO3)n1 (stereo not drawn) | inactive: 23.2% |
| Nc1nonc1-n1nnc(C(=O)N/N=C/c2cc(Br)ccc2O)c1CSC1=NCCS1 | active: -103% |
| O=C(c1oc2ccccc2c1CSCc1ccccc1)N1CCN(c2ncccn2)CC1 | inconclusive: -44.7% |
| S=C(Nc1cccnc1)Nc1cccc2cnccc12 | inactive: -35.9% |

Already shown: three of the compounds above.

| SMILES | activity change, negative = inhibition |
| --- | --- |
| O=C(c1cc2ccccc2o1)N1CCN(C/C=C/c2ccccc2)CC1 | inconclusive: -57.2% |
| Cc1ccc(N(CC(=O)NCc2ccccc2)S(=O)(=O)c2c(C)noc2C)cc1 | inactive: -38.3% |
| CCCCCC1(C(=O)OCC)CC(CSC(=N)N)OC1=O (stereo not drawn) | inconclusive: -57.6% |
